According to paper PMC12663137 (Nature Communications, 2025):
For part of its entries the source gives two or more results. The other results are left out here. There may be further records. Results that share an entry differ for a reason that is not stated; some may be repeats, others may stem from another dose, organism or construct than stated.

Sequences of proteins named here, by UniProt entry; tags and fusion partners are left off. A change or cut given only in a name is not applied to a line headed by its entry. Residues count along the entry.
UniProt Q7L0J3, whole entry: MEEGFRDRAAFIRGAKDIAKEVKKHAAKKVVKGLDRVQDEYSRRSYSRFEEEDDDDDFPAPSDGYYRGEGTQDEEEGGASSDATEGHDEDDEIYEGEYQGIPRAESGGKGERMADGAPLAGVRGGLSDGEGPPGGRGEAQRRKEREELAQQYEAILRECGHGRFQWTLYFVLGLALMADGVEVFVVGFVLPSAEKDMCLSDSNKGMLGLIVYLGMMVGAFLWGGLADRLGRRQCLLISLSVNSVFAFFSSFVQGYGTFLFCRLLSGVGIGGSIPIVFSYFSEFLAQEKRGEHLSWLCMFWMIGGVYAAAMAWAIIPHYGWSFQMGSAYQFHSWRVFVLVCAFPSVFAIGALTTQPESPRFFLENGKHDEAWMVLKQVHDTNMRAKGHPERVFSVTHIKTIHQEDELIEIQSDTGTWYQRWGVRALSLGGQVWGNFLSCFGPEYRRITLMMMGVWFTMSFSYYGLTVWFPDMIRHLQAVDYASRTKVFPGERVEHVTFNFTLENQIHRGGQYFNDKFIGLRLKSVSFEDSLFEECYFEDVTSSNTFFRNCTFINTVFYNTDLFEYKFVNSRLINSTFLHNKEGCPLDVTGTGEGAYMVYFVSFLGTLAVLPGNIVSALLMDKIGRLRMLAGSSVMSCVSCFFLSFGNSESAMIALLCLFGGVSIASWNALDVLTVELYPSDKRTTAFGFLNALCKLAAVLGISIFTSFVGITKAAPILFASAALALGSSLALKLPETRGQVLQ
UniProt Q7L0J3, 141-742 F188A limits assumed: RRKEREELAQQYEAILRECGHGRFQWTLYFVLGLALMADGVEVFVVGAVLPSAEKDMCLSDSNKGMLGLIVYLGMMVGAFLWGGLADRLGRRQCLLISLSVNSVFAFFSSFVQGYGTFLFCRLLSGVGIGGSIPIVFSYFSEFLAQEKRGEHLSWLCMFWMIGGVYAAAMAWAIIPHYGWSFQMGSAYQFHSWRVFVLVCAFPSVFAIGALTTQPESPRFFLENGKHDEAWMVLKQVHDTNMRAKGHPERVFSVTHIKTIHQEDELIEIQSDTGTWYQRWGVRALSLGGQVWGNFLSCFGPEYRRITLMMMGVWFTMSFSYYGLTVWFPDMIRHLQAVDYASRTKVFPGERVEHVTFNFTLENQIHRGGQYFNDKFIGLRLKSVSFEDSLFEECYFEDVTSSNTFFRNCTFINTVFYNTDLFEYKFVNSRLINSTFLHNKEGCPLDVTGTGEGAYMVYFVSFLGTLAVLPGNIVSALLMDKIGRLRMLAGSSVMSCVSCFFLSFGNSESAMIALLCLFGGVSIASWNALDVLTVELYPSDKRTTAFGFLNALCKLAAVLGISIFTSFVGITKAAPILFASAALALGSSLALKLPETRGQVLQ
UniProt Q7L0J3, 141-742 limits assumed: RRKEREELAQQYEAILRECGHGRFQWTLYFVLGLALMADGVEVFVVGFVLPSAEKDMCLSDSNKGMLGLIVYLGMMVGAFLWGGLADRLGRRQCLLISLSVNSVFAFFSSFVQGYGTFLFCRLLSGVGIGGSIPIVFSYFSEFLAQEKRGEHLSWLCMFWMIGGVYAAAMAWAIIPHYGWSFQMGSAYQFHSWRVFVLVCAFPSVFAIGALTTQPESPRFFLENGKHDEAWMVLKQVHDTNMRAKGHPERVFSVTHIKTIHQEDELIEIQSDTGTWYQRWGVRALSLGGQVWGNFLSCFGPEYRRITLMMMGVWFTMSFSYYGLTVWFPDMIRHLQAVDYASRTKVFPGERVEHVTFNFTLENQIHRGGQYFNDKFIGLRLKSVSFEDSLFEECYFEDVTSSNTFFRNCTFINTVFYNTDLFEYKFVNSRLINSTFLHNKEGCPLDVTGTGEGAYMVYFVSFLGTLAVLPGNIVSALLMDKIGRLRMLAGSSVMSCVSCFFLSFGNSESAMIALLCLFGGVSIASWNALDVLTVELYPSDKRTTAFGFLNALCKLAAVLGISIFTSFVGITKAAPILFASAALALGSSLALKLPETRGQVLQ

Tests used:
SV2AEM = SV2AEM (Homo sapiens, UniProt Q7L0J3); assay: Competitive displacement of 10 nM 3H-UCB-J, SV2AEM membranes (Fig. 1A); conditions: SV2A_EM
SV2A = SV2A (Homo sapiens, UniProt Q7L0J3); assay: Steady-state (saturation) binding of 3H-UCB-J with 30 µM UCB1244283 or 1% DMSO (Fig. 4A); conditions: tested as the radiolabelled form
[1] = target: SV2AEM WT or SV2AEM F188A (Homo sapiens, UniProt Q7L0J3); assay: Dissociation kinetics of 3H-UCB-J (Fig. 4E); conditions: WT, DMSO, tested as the radiolabelled form
[2] = target: SV2AEM WT or SV2AEM F188A (Homo sapiens, UniProt Q7L0J3, F188A); assay: Dissociation kinetics of 3H-UCB-J (Fig. 4E); conditions: F188A, DMSO, tested as the radiolabelled form

Compound | Binding of 3H-UCB-J (%) (SV2AEM; Log [Padsevonil] (M) -7.000) | Binding of 3H-UCB-J (%) (SV2AEM; Log [Padsevonil] (M) -7.301) | 3H-UCB-J Binding (f.mol/assay) (SV2A; 3H-UCB-J 0.78 nM) | 3H-UCB-J Binding (f.mol/assay) (SV2A; 3H-UCB-J 3.12 nM) | 3H-UCB-J Binding (f.mol/assay) (SV2A; 3H-UCB-J 12.50 nM) | 3H-UCB-J Binding (f.mol/assay) (SV2A; 3H-UCB-J 100.00 nM) | 3H-UCB-J Binding (%) ([1]; 20 min) | 3H-UCB-J Binding (%) ([1]; 30 min) | 3H-UCB-J Binding (%) ([1]; 40 min) | 3H-UCB-J Binding (%) ([1]; 50 min) | 3H-UCB-J Binding (%) ([1]; 70 min) | 3H-UCB-J Binding (%) ([2]; 15 min) | 3H-UCB-J Binding (%) ([2]; 20 min)
COCc1nn2c(CN3CC(CC(F)(F)Cl)CC3=O)c(C(F)(F)F)nc2s1 (stereo not shown) | 11.96, 10.66, 7.38, 14.13, 23.27, 6.66% | 13.33, 31.99, 42.07, 28.44, 41.07, 12.87% |  |  |  |  |  |  |  |  |  |  | 
Cc1cnccc1CN1C[C@@H](c2cc(F)c(F)c(F)c2)CC1=O [UCB-J] |  |  | 3 f.mol/assay, 2 f.mol/assay, 1 f.mol/assay | 3, 2, 5, 4, 7 f.mol/assay | 10, 12, 28, 27 f.mol/assay | 32, 20, 39, 42, 55, 28 f.mol/assay | 2.24%, 14.06%, 8.82% | 0.76%, 3.34%, 3.64% | -0.73%, 1.87%, 5.76% | 1.42%, 4.53%, -0.0355% | 2.52% and -0.78% | 1.05% and 3.24% | -0.29% and 0.29%
